Data as given in PubChem BioAssay AID651803 (National Center for Advancing Translational Sciences (NCATS), 2012).
Out of some 1,200 compounds screened, fewer than 10 were called active. The call rests on the fitted dose curve; in most records, active means well fitted curve in the direction sought with a large enough effect; inconclusive means small, poorly fitted or top-dose-only effect, or another doubt; inactive means no such curve, though single readings can be large or run the other way. Some of the results follow.

Sequences of proteins named here, by UniProt entry; tags and fusion partners are left off. A change or cut given only in a name is not applied to a line headed by its entry.
UniProt P11308: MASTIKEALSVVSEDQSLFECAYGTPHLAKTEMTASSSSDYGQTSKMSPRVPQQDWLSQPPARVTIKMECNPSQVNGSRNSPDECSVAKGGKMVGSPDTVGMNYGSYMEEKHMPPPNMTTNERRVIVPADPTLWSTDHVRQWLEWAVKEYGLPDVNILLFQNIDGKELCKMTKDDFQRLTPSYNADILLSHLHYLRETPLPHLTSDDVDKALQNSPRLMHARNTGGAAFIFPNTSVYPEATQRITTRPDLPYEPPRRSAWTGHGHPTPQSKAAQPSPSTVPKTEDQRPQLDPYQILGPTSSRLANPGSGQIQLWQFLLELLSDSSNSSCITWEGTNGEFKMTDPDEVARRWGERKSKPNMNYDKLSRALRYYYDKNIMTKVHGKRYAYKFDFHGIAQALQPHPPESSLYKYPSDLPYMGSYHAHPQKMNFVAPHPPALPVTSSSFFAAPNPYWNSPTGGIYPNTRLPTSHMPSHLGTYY

Target: Transcriptional regulator ERG (Homo sapiens) (UniProt P11308)
Test: qHTS for Small Molecule Inhibitors of the ERG Ets/DNA interaction: TR assay against cherry picks; further: % of control where 0% means no effect
Settings: ERG Ets domain-DNA fluorescence polarization, Texas red probe; at 154 µM (top of the series)
Procedure, shortened: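 Polarization read sequentially for fluorescein (ex 480/em 535 nm) and Texas red (ex 555/em 632 nm) probes, 5 nM and 100 nM solutions, displaced from His-ERG Ets domain (1 uM solution), pH 7.5 Tris/KCl/EDTA/DTT buffer.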

Activity change, negative = inhibition, inactive:
COc1ccc(CCC(=O)NNC(=O)c2cc(Cl)ccc2OC)cc1 -11.6%, COc1ccc(NC(=O)COC(=O)C2C3CC4OC(=O)C2C4C3)cc1 (stereo unspecified) 6.29%, Cc1ccc(CNC(=O)Cn2c(=O)n(Cc3ccc(F)cc3)c(=O)c3sc4ccccc4c32)cc1 3.27%, O=S(=O)(Nc1cccc(S(=O)(=O)N2CCCCC2)c1)c1ccc(Cl)s1 -15%, CC(=O)Nc1cccc(NC(=O)c2ccccc2OCc2c(C)noc2C)c1 -16.3%, CCN1CCN(C(=O)Cn2ncc3ccsc3c2=O)CC1 7%, O=C(NC1CCCCCCC1)c1ccc(F)c(S(=O)(=O)N2CCOCC2)c1 -7%, C=CCn1cccc(C(=O)Nc2cc(OC)c(OC)c(OC)c2)c1=O 0.601%, CCOc1cc(CNc2cccc3[nH]c(C)nc23)ccc1OC 3.22%, COc1ccc(CNC(=O)c2sc(=S)n(-c3ccccc3)c2N)cc1 10.8%, CC(C)N(C(=O)Cn1cc(S(=O)(=O)CC(=O)N2CCOCC2)c2ccccc21)C(C)C -5.17%, N/C(=N\c1nc2ccccc2o1)NC(=O)c1cccc(Br)c1 1.54%, COc1cc(NC(=O)CCCNC(=O)c2ccc(Cl)cc2)cc(OC)c1 -10.9%, N#Cc1c(SCc2c(Cl)cccc2Cl)nc(N)[nH]c1=S 1.43%, Cc1ccc(-n2c(Cc3noc4ccccc34)n[nH]c2=S)cc1 -1.53%, Cc1ccc(-c2noc(C3CCCN(C(=O)c4cccc([N+](=O)[O-])c4)C3)n2)o1 (stereo unspecified) 0.0783%, CSc1ccccc1NC(=O)CN(C)C(=O)/C=C/c1ccccc1 0.312%, COC(=O)C(=O)/C=C(\O)c1ccc(C)cc1 -10.1%, CSC(=NC#N)N1CCN(C(=NC#N)SC)CC1 0.746%, COc1ccc(C2(C(=O)Nc3ccc(OC)cc3OC)CCCC2)cc1 -3.52%, Cc1ccc(NC(=O)C2CCN(S(=O)(=O)c3cccc(C(F)(F)F)c3)CC2)nc1 -0.166%, CC(C#N)(NC(=O)CN1CCN(S(=O)(=O)c2ccccc2C#N)CC1)C1CC1 (stereo unspecified) 5.77%, COCCN(CCOC)Cc1c(O)ccc2c1O/C(=C\c1ccco1)C2=O -1.22%, O=C(CN1CCOCC1)NNC(=S)Nc1ccccc1 0%, CCOC(=O)N1CCN(C(=O)COC(=O)c2cccc(S(C)(=O)=O)c2)CC1 4.09%, COc1cccc(-n2nc3c(=S)[nH]nc(C)c3c2C)c1 -1.09%, Cc1ccc(CNC(=O)c2sc3nc(-c4ccc(F)cc4)ccc3c2N)cc1 -12%, CC(=O)OCC(=O)C1=CCC2C3CCC4=CC(=O)C=CC4(C)C3(F)C(OC(C)=O)CC12C (stereo unspecified) -1.19%, O=C(c1ccc(CS(=O)c2ccccc2Cl)o1)N1CCN(c2ccccn2)CC1 (stereo unspecified) 2.68%, CCN(CC)S(=O)(=O)c1cccc(-c2nc3n(n2)Cc2ccccc2-3)c1 17%, O=C(NC(=S)NNC(=O)c1ccccc1O)c1cccc([N+](=O)[O-])c1 -6.41%, COc1cc(OC)c(OC)cc1/C=N/NC(=O)c1cccc(S(=O)(=O)N2CCOCC2)c1 -24.6%, O=C(c1ccco1)N(Cc1ccc2c(c1)OCO2)Cc1cc2cc3c(cc2[nH]c1=O)OCO3 0.603%, COc1ccc(S(=O)(=O)N2CCCC(C(F)(F)F)C2)cc1 (stereo unspecified) -12.3%, CC(C)CC(=O)CN1C(=O)C2(OCCO2)c2ccccc21 -1.61%, COC(=O)c1sccc1NC(=O)c1ccccc1Br 3.3%, CNC(=O)C(=O)NCCN1CCN(C(=O)c2ccc([N+](=O)[O-])cc2)CC1 6.81%, Cn1c(SCc2nnc(-c3ccccc3)o2)nc2ccccc21 2.98%, CCN(CC)CCN1C(=O)C(O)=C(C(C)=O)C1c1ccccc1[N+](=O)[O-] (stereo unspecified) 14.1%, CCCC(=O)Nc1ccc(C(=O)Nc2nnc(COCC)s2)cc1 -14.2%, CCc1ccc(-c2cc(C(F)(F)F)n3nc(C(=O)Nc4cnn(Cc5ccc(C)cc5)c4)cc3n2)s1 -2.57%, CCN(CC)c1ccc2cc(-c3nc(-c4cc(OC)c(OC)c(OC)c4)no3)c(=O)oc2c1 9.56%, O=[N+]([O-])c1ncccc1OCc1ccc(-c2ccccc2)cc1 2.88%, CCOc1ccc(-c2cc(C(=O)OC)[nH]n2)cc1 -15.6%, CCCN(C(=O)c1nn(-c2ccc(C)cc2)c(=O)c2c1c1ccccc1n2C)c1ccccc1C -5.76%, Cc1ccc2c(c1)N(CC(=O)NC1CCCc3ccccc31)C(=O)CO2 (stereo unspecified) -9.33%, CCOc1cc(NC(=S)NCC(C)C)c(OCC)cc1NC(=O)c1ccco1 -6.3%, Cc1ccc(N(CC(=O)NC2CCCC2)C(=O)CNC(=O)c2cccs2)c(C)c1 -7.05%, CC1(C)CC(=O)C(C(O)c2ccccc2)C(C)(C)N1 (stereo unspecified) -0.45%, CCOc1ccccc1N1CCN(CC(=O)c2c(N)n(C)c(=O)n(C)c2=O)CC1 -9.83%, COc1ccc(CCNC(=O)CSc2n[nH]c(N)n2)cc1 1.38%, CCOC(=O)c1ccc(NC(=O)c2cn(-c3ccccc3)nc2-c2ccc(OC)c(OC)c2)cc1 -9.46%, CC(=O)C1=C(O)C(=O)N(c2nccs2)C1c1ccccc1 (stereo unspecified) 6.49%, CCOC(=O)C1=C(C)N(C[C@@H]2CC[C@@H](Cc3ccc(-c4ccccc4)cc3)O2)C(=O)NC1c1ccc([N+](=O)[O-])cc1 (stereo partly specified) 0.997%, CCOC(=O)c1c(-c2ccccc2)csc1NC(=O)c1cc(-c2ccc(C)c(F)c2)on1 -12.7%, COCC(=O)NC1CCN(S(=O)(=O)c2cccc(C(C)=O)c2)CC1 -1.12%, CCOc1ccc(NS(=O)(=O)c2ccc(NC(C)=O)c(OC)c2)cc1 -4.62%, CC(C)N1CCN(Cc2ccc(Sc3nncn3C)o2)CC1CCO (stereo unspecified) 6.4%, Cn1c(CO)cnc1SCc1ccc(F)cc1 18.1%, CCOc1ccccc1NC(=O)COc1ccc2ccc(=O)oc2c1 13.9%, O=C(Nc1cc(-c2nc3cc(Cl)ccc3o2)ccc1Cl)c1cccs1 51%, Cc1c(C(=O)Cc2ccccc2)n(C)c2ccccc12 -7.16%, O=C(Nc1cc(C(F)(F)F)ccc1N1CCCCC1)c1cccc([N+](=O)[O-])c1 0.649%, N#CC(C(=O)NCc1ccccc1)c1nc2ccccc2nc1N1CCCC1 (stereo unspecified) 9.57%, COc1ccc(N(C(=O)c2snc(C(N)=O)c2N)C(C(=O)NCC2CCCO2)c2ccc3ncccc3c2)cc1OC (stereo unspecified) -0.522%, CCCN(CC(=O)Nc1ccc(OC)c(OC)c1)CC(=O)Nc1ccc(F)c(F)c1F -6.81%, CCc1cc[n+](-c2nc([O-])sc2C=O)cc1 18.3%, CC1CCCCC1NC(=S)Nc1ccc(Cl)cc1Cl (stereo unspecified) -6.59%, COc1ccccc1N(C)S(=O)(=O)c1ccc(C(=O)OCC(=O)N2CCCCCC2)cc1 -6.24%, CCn1cc(CN(C)C(=O)/C=C/c2ccc([N+](=O)[O-])cc2)c(C)n1 -8.16%, Cc1nccn1C[C@@H]1CCc2c(c3ccccc3n2C)C1=O -7.4%, Cc1ccccc1NS(=O)(=O)c1ccc(OCCNS(C)(=O)=O)cc1 -5.18%, CCc1cccc(C)c1NC(=O)CSc1nc(C)c(C)o1 11%, Cc1cc(C)cc(N(C(=O)c2csnn2)C(C(=O)NC(C)(C)C)c2ccncc2)c1 (stereo unspecified) 6.77%, O=C(O)c1cc2nc(-c3ccccc3)cc(-c3ccccc3)n2n1 -1.39%, O=C1CCN(S(=O)(=O)c2ccc(Br)cc2)CCN1 -10.5%, CC(C)Cc1nnc(NS(=O)(=O)c2ccc([N+](=O)[O-])cc2)s1 5.75%, COc1ccc(-c2cc(N)n(S(=O)(=O)Cc3ccccc3)n2)c(OC)c1 -1.88%, CCN(CC)S(=O)(=O)c1ccc2c(c1)c(=O)c(C(=O)NCCc1ccccc1)cn2C -18.7%, O=C(C1CC(=O)N(c2ccc(Cl)cc2)C1)N1CCCCCC1 (stereo unspecified) -0.46%, Cc1[nH]cnc1CN1CCc2c(c3ccccc3n2C)C1=O -11.6%, Oc1cncc(Cc2ccccc2)c1 6.96%, Cc1ccc(S(=O)(=O)NNC(=S)NC(=O)c2ccc([N+](=O)[O-])cc2)cc1 -11.6%, Cc1nn2c(=O)c3c4c(sc3nc2n1-c1ccccc1)COC(C)(C)C4 6.15%, CCOC(=O)c1cn2nc(Oc3ccc(NC(C)=O)cc3)ccc2n1 -15%, O=C(NNC(=O)c1sccc1-n1cccc1)Nc1ccccc1 11.1%, Cc1ccc(F)cc1NC(=O)CCc1c(C)[nH]c(=O)c(C#N)c1C 6.14%, c1ccc(N=Nc2ccc3cccccc2-3)cc1 -9.75%, COC(=O)C1CSC(C(=O)OC)N1C(=O)CN1CCN(c2ccccc2)CC1 (stereo unspecified) -3.34%, CN(CC(=O)NC(=O)NC1CCCCC1)CC(=O)Nc1ccc(Cl)cc1 1.09%, Cc1ccc(-n2c(C)cc(C(=O)NS(=O)(=O)c3ccc(C)cc3)c2C)cc1 -0.476%
